Measurements reported in patent publication US20090054259A1, “METHODS FOR INDUCING COMPLETE APOPTOSIS OF LIVER CELLS EXPRESSING HBCHI PROTEIN AND SCREENING FOR SUBSTANCES OR GENES THAT INHIBIT THE APOPTOSIS” (priority 2004, published 2009).

Test system: Chang X31 cells
Assay type: cell-based, human

CN[C@@H]1C[C@H]2O[C@@](C)([C@@H]1OC)n1c3ccccc3c3c4c(c5c6ccccc6n2c5c31)C(=O)NC4 [STS, staurosporine]
inhibition of the apoptosis of the liver cell line (conclusion): does not inhibit the apoptosis
